{
  "sequences": {"note": "Protein sequences, listed by entry. Tags and fused reporters are not part of them. Residues count along the entry.", "UniProt P51449, whole entry": "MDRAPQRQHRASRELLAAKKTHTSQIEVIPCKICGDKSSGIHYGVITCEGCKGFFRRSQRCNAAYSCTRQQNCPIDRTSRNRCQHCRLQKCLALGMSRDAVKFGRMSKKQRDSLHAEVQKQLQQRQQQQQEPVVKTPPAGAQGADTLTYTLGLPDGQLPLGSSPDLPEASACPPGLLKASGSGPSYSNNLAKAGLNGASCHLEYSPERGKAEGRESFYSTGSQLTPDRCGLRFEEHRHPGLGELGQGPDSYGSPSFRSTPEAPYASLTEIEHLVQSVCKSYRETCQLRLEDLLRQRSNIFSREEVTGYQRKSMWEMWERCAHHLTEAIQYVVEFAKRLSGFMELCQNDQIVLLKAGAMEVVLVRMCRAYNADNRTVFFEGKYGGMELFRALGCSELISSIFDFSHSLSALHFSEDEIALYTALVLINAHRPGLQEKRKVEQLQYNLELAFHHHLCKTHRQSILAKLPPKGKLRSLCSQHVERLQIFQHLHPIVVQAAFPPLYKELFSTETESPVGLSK", "UniProt P51449, 269-508 limits assumed": "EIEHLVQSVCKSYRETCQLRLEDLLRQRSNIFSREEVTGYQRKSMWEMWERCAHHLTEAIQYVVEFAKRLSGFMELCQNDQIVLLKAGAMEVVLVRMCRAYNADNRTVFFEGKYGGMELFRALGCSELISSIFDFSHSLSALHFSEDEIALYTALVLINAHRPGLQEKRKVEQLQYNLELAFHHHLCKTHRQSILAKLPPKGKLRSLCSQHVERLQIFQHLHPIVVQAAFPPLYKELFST"},
  "source": "patent US9815851B2",
  "about": "“Pyrrolo carboxamides as modulators of orphan nuclear receptor RAR-related orphan receptor-gamma (RORγ, NR1F3) activity and for the treatment of chronic inflammatory and autoimmune diseases” (PHENEX PHARMACEUTICALS AG, priority 2011, dated 2017)",
  "key": {"[1]": {"biological_target": "RORγ (UniProt P51449)", "assay": "RORγ Gal4 Reporter Gene Assay in 293T cells (firefly and renilla luciferase)", "type": "cell-based, human"}, "[2]": {"biological_target": "RORγ ligand binding domain (LBD) (Homo sapiens, UniProt P51449)", "assay": "TR-FRET Activity Assay (ligand sensing, RORγ-LBD / coactivator peptide interaction, LANCE)", "type": "biochemical", "settings": "first value of the cell FRET/FF/REN"}},
  "note": "Where “and” joins values, the source holds several entries; their conditions need not be identical. Identical values can stand only once. The structures given here were assigned with low confidence; some may be wrong.",
  "data": [
    {"smiles": "Cc1c(C(=O)NCC(C)(C)O)cc(-c2cc(S(=O)(=O)N3CCCCC3)c3ccccn23)n1CC1CCCCC1", "values": [
      {"measurement": "pIC50 (FF)", "setting": "[1]; second value of the cell, firefly luciferase", "value": "6.8 and 6.7"},
      {"measurement": "pIC50 (REN)", "setting": "[1]; third value of the cell, renilla normalised luciferase", "value": "6.9 and 6.8"},
      {"measurement": "pIC50 (FRET)", "setting": "[2]", "value": "5.3 and 5.6"}
    ]}
  ]
}
